The record followed here is PMC5461112, “Structure analyses reveal a regulated oligomerization mechanism of the PlexinD1/GIPC/myosin VI complex” (eLife, 2017).

No constants are given. Whether binding was seen depends on the method and setting.

Test [1] has as its target T1, mouse GIPC1 GH2 domain (residues 258-333) (mouse), Q9Z0G0.
T1 chain: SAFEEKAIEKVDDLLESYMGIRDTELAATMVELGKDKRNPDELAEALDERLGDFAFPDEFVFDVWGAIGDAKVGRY
The test is described as follows: AUC; sedimentation velocity of single proteins (GH2 at 30 μM, HCBD at 20 μM); 10 mM Tris pH 8.0, 150 mM NaCl, 1 mM TCEP; 4°C, 50,000 rpm; both purified. The conditions noted are these: remark: other sources report otherwise.

The target of test [2] is mouse GIPC1 linker-GH2 (residues 217-333) (mouse) (UniProt Q9Z0G0). The test is described as follows: AUC; sedimentation velocity of single proteins (linker-GH2 at 38 μM and 200 μM, HCBD at 150 μM); 10 mM Tris pH 8.0, 500 mM NaCl, 1 mM TCEP; 4°C, 50,000 rpm; both purified.

B1: mouse GIPC1 GH2 domain (residues 258-333), Q9Z0G0 258-333 (domain or fragment)
chain: SAFEEKAIEKVDDLLESYMGIRDTELAATMVELGKDKRNPDELAEALDERLGDFAFPDEFVFDVWGAIGDAKVGRY
Consider B1, for which the binding result in test [1] is listed as “no binding (tested: 30 μM)”.

B2: mouse GIPC1 linker-GH2 (residues 217-333) (domain or fragment, UniProt Q9Z0G0 217-333)
chain: AFDMISQRSAGGHPGSGPQLGTGRGTLRLRSRGPATVEDLPSAFEEKAIEKVDDLLESYMGIRDTELAATMVELGKDKRNPDELAEALDERLGDFAFPDEFVFDVWGAIGDAKVGRY
B2: the binding entry in test [2] is “no binding (tested: 200 μM)”.
